Measurements published in publication PMC5752508.
These are yes or no findings as the source states them, for the method shown. Binding seen in cells or lysates may run through a third protein. Some entries that bind do so weakly or less than the wild type.

Target: Serine 139-phosphorylated H2AX (γ-H2AX), endogenous in MCF7 cells (human (endogenous in MCF7)) (UniProt P16104)
Assay: co-IP; IP with anti-γ-H2AX antibody and protein A/G agarose from whole-cell extracts of MCF7 cells treated with etoposide, overnight at 4°C; Western blot

“Pyruvate kinase M2 (PKM2), endogenous in MCF7 cells (from UniProt P14618 1-531) (enzyme)” was tested, and the binding was “binds”.
